Experiment [1] addresses recombinant mouse PCSK9 (mouse) (UniProt Q80W65). The experiment in a line: SPR (Biacore 3000).
Experiment [2] shares this target. The experiment in a line: ELISA, blocking: biotinylated mouse PCSK9 (0.8nM) binding to immobilized human LDLR extracellular domain, pH7.5.
Experiment [3] shares this target. The experiment in a line: ELISA, blocking: 0.31 nM biotinylated mouse PCSK9 binding to immobilized LDLR extracellular domain, pH 5.3.
Experiment [4] has the same target. Put plainly: ELISA, blocking: 0.31nM biotinylated mouse PCSK9 binding to immobilized LDLR extracellular domain, pH 7.5.

By UniProt entry, the sequences of proteins in these tests, tags left out. Where a name states a change or a piece, a line headed by the entry shows the natural chain unless it says otherwise. Chains listed by the source or under a name are the forms on record and can include a tag or linker.
recombinant mouse PCSK9 (Q80W65, form named): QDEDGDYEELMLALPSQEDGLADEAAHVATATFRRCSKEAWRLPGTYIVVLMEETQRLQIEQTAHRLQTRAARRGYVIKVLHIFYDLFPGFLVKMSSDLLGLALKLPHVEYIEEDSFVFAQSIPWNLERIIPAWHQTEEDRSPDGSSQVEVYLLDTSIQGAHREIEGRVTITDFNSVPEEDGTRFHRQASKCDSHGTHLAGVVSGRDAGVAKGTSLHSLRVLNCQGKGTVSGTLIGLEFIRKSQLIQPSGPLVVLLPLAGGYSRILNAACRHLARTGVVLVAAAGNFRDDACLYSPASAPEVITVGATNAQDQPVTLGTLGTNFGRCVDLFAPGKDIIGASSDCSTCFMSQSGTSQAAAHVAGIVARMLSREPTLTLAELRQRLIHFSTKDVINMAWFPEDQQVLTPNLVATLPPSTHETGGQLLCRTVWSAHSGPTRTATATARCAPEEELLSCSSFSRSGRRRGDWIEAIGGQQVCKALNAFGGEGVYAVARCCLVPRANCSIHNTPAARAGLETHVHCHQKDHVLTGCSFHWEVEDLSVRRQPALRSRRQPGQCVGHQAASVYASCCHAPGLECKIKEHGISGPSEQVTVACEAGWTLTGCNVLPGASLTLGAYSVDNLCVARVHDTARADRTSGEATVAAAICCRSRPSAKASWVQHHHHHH

No constants are given. Whether binding was seen depends on the method and setting. Some entries that bind do so weakly or less than the wild type. Tags and fused reporters may be left off the sequences shown.

B1: anti-PCSK9 antagonist monoclonal antibody 6F6 (antibody, V domains shown)
VH: EVQLQQSGPELVKPGASVKISCKASGYTFTDYYMNWVKQSHGKSLEWIGDINPNNGGTSYNQKFKGKATLTVDKSSSTAYMELRSLTSEDSAVYYCAGGGIYYRYDRNYFDYWGQGTTLTVSS
VL: DIQMTQTTSSLSASLGDRVTISCSASQGISNYLNWYQQKPDGTVKLLIYYTSSLHSGVPSRFSGSGSGTDYSLTISNLEPEDIATYYCQQYSKLPFTFGSGTKLEIK
With B1, the binding entry in experiment [1] and in experiment [2] was “binds” in each case.

B2: anti-PCSK9 antagonist monoclonal antibody 5A10 (antibody, V domains shown)
VH: QVQLQQPGAELVKPGASVKLSCKASGYTFTSYWMHWVKQRPGQGLEWIGEINPSNGRTNYNEKFKSKATLTVDKSSSTAYMQLSSLTSEDSAVYYCARERPLYAMDYWGQGTSVTVSS
VL: DIVMTQSHKFMSTSVGDRVSITCKASQDVSTAVAWYQQKPGQSPKLLIYSASYRYTGVPDRFTGSGSGTDFTFTISSVQAEDLAVYYCQQRYSTPRTFGGGTKLEIKR
Consider B2, for which the binding entry in experiment [1], in experiment [3], in experiment [2] and in experiment [4] was “binds” throughout.

B3: anti-PCSK9 antagonist monoclonal antibody 7D4 (antibody, V domains shown)
VH: EVKLVESEGGLVQPGSSMKLSCTASGFTFSDYYMAWVRQVPEKGLEWVANINYDGSNTSYLDSLKSRFIISRDNAKNILYLQMSSLKSEDTATYYCAREKFAAMDYWGQGTSVTVSS
VL: DIVMTQSHKFMSTSFGDRVSITCKASQDVSNALAWYQQKPGHSPKLLIFSASYRYTGVPDRFTGSGSGTDFTFTISSVQAEDLAVYYCQQHYSTPWTFGGGTKLEIKR
B3: the binding entry in experiment [1] and in experiment [2] was “binds” in each case.

B4: anti-PCSK9 antagonist monoclonal antibody 4A5 (antibody, V domains shown)
VH: EVQLQQSGPELVKPGASVKISCKASGYTFTDYYMNWVKQSHGKSLEWIGDINPNNGGTTYNQKFKGKATLTVDKSYSTAYMELRSLTSEDSAVYYCARWLLFAYWGQGTLVTVSA
VL: DIVMTQSQKFMSTSVGDRVSVTCKASQNVGTNVAWYQQKPGQSPKALIYSASYRYSGVPDRFTGSGSGTDFTLTISNVLSEDLAEYFCQQFYSYPYTFGGGTKLEIKR
For B4, the binding result in experiment [1] and in experiment [2] was “binds” throughout.

B5: L1L3 humanized anti-PCSK9 monoclonal antibody (antibody, V domains shown)
VH: QVQLVQSGAEVKKPGASVKVSCKASGYTFTSYYMHWVRQAPGQGLEWMGEISPFGGRTNYNEKFKSRVTMTRDTSTSTVYMELSSLRSEDTAVYYCARERPLYASDLWGQGTTVTVSS
VL: DIQMTQSPSSLSASVGDRVTITCRASQGISSALAWYQQKPGKAPKLLIYSASYRYTGVPSRFSGSGSGTDFTFTISSLQPEDIATYYCQQRYSLWRTFGQGTKLEIKR
Take B5: the binding entry in experiment [3] and in experiment [4] was “binds” each time.

For the origin of these results see US20100068199A1.
